Results published in article PMC9546861 (2022).

Columns and labels:
[1] = peptide made by a vendor (Fmoc solid-phase peptide synthesis; 2-chlorotrityl resin ([…]); DIC/oxyma); conditions: whole synthesis, LCMS, scale 2 µmol
[2] = general procedure: Fmoc solid-phase peptide synthesis; 2-chlorotrityl resin ([…]); DIC/oxyma; conditions: whole synthesis, LCMS, scale of the general procedure 2 µmol (crude high-throughput peptides)

Sequence | crude LC-MS purity [1] | final LC-MS purity [2]
FNASGYGMGHOOJ | 69.6% | 
FNFSGYGMGHOOJ | 72.4% | 
ANFSGYGMGHOOJ | 79.5% | 
FSIVGOOJ |  | >98%

Plain letter strings leave the end groups untold.
